Test results from publication PMC6562232.
No constants are given. Whether binding was seen depends on the method and setting. In cells and extracts the contact can be indirect. Binding can be weak; no strength is given.

By UniProt entry, the sequences of proteins in these tests, tags left out. Where a name states a change or a piece, a line headed by the entry shows the natural chain unless it says otherwise.
UniProt A0A644F7M7: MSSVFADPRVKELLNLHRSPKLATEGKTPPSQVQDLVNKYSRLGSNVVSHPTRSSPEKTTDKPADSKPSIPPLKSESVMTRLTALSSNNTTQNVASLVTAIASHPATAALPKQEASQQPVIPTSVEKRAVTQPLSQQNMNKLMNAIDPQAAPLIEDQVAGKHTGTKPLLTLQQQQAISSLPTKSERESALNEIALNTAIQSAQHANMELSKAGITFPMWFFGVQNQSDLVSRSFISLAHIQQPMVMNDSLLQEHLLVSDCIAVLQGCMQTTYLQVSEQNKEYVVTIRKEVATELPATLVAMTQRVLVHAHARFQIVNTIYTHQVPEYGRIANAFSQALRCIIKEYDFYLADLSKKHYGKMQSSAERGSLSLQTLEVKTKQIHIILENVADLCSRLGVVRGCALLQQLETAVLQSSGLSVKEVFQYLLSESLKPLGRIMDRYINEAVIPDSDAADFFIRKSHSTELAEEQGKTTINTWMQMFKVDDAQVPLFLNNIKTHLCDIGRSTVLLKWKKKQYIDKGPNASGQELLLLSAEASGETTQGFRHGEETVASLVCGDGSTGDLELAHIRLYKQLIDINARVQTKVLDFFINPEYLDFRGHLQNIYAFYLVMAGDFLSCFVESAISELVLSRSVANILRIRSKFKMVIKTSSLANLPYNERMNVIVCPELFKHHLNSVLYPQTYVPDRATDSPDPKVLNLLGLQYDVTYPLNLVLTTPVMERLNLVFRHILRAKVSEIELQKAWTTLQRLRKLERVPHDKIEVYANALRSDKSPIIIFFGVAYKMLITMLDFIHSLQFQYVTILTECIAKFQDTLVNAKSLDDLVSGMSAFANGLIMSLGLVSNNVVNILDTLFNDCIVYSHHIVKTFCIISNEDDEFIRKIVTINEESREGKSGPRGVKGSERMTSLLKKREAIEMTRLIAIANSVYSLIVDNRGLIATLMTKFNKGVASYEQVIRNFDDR
UniProt A8BFK8: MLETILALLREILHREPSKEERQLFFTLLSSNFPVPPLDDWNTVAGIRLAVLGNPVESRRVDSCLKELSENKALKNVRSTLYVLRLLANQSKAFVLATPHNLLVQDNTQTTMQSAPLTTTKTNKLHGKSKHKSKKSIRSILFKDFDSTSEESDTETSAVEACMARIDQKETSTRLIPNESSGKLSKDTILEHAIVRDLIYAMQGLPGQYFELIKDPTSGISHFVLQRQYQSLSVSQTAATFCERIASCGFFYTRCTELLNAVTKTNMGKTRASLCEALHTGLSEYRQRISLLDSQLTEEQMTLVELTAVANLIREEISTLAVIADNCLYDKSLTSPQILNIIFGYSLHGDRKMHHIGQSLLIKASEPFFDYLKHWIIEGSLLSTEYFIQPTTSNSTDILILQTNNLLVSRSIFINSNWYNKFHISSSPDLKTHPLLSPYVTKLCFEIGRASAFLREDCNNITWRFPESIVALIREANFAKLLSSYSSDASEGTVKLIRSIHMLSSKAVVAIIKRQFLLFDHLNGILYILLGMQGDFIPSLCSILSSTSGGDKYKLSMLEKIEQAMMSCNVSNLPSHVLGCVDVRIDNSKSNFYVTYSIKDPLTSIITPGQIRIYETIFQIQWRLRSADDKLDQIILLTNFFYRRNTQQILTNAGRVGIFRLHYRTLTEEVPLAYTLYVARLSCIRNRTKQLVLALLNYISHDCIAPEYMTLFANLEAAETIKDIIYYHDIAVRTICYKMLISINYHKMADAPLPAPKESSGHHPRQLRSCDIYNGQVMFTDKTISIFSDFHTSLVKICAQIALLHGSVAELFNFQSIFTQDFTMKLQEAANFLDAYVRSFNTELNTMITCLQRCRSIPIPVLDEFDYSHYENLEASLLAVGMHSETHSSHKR

Target: HA-tagged Glγ-tubulin expressed in transgenic G. lamblia (pGlγ-tubulinHAX3.pac) (Giardia lamblia)
Experiment: co-IP; lysates of G. lamblia expressing HA-tagged Glγ-tubulin (50 mM Tris-HCl pH 7.4, 150 mM NaCl, called cross-linking buffer), 1 mg lysate with anti-HA agarose beads overnight at 4°C, washed with 1% Triton X-100; western blot; control anti-mouse IgG Sepharose beads

Row | binding | Substance
1 | binds | G. lamblia γ-tubulin complex protein 2 (GlGCP2), endogenous (from UniProt A0A644F7M7)
2 | binds | G. lamblia γ-tubulin complex protein 3 (GlGCP3), endogenous (from UniProt A8BFK8)
